In PubChem BioAssay AID1347423 (Functional Genomics Laboratory (NCATS/FGL), 2020):
The whole screen tested about 52,000 sequences, of which about 210 (0.4%) were called active.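 How the source made its calls: active means gene whose silencing raises cell survival under the drug, median off-target-corrected z-score across its silencing RNAs 2 or more; inactive means the rest.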 Some of the results follow.

Assay: Resistance to Poly (ADP-Ribose) Polymerase inhibitor: Gene Identification via Genome-wide siRNA Screen
Conditions: mouse BRCA2 R2336H ES cells, olaparib, CellTiter-Glo viability; active compounds read high
Outline: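 Genome-wide siRNA screen (3 siRNAs/gene, 20 nM) in mouse ES cells carrying hypomorphic BRCA2 R2336H; olaparib 500 nM added 48 h post-transfection, CellTiter-Glo viability 72 h later. Normalized to plate-median negative control; MAD z-scores, gene median, seed-adjusted.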

Sequence	z-score
GGAGAGGCAUCUUUUCCUATT against Arhgap20	inactive: 0.45
GGUGACUCAUAUUCGGAUCTT against Hcph	inactive: 0.584
GGAAGUUUAAAGUCUAGAATT against Adcy7	inactive: 0.905
GCCAAAGACUCUUAUAAGUTT against Bnc1	inactive: 0.697
AGUUUAGGUCUACAGAUACTT against Ggnbp1	inactive: -0.369
GCCUAUACUGAUUUAUGAUTT against Tomm7	inactive: -0.191
GGAGACAUUCCUGAAAGCUTT against Ankrd2	inactive: -0.721
GGAAAUGACCAGUCUGUUUTT against Zmym1	inactive: -0.296
GGAUUCUUGGAGCUCAUUATT against Stag3	inactive: -0.97
GCUGAAUUCGAAGAACAAUTT against Bpil1	inactive: 0.796
GGUCCCUAUGUUAUUGAUUTT against Spock2	inactive: -0.0692
GGUUGUGUUCAUGGAGAAGTT against Nfatc2	inactive: -0.726
GGAGACAGAAAUGAGUUCATT against Slc34a2	inactive: -0.442
GGUCUCGGGUCUGAUUUAATT against Foxa2	inactive: 0.601
GGAAACUGAGUUAGAUGCATT against E330036I19Rik	inactive: -1.25
GGAGCUAAACCAAUGGCAATT against 2310047H23Rik	inactive: 1.05
UCUUCUAUGGUUCAGGUGCTT against Olfr144	inactive: 0.165
GCAACAUGGCCCUUACCAUTT against Plcb2	inactive: -0.797
GGAGAAGUUUAGUGAAGAATT against AW061290	inactive: -2.02
GGGCCAAUUUAAGUAUAUCTT against Admr	inactive: 0.738
GGACGGGAUACUUUAAAGATT against Shfdg1	inactive: -2.68
GGAUGAAUGUCACAACUUCTT against Sema6a	inactive: -0.937

Sequence	z-score
GCCAUGUCUUCCUUCUCCATT against Sprr2g	inactive: -0.243
CCCUGUGAUCACUACAUGUTT against Traf7	inactive: -0.0623
CGAUAUUGAUGAUCUAGUCTT against Jmjd2a	inactive: 0.853
GGCAAAGAUAAAAUGCUGATT against 2810417H13Rik	inactive: 0.869
CCACUACUACUGGUAUGCUTT against 1110012E06Rik	inactive: 0.461
GGAAGAAAGAAUCAAGCUGTT against Tnfsf14	inactive: -1.33
GGCAAGACAUCAGCUAGUATT against Pcdhgc5	inactive: -1.07
GGUUCUACAGAUGGUGUCUTT against Tnfrsf23	inactive: -1.86
GCAGAGAAUCGGACUUUCCTT against 1700020O03Rik	inactive: -0.674
GGUGUUGGAUGGGAUCCCUTT against Rpl13a	inactive: -2.67
CUGAUCCUUCAAUUAACAUTT against Olfr202	inactive: -0.835
GGAAUGAAAUCAAACUUGATT against Amac	inactive: 0.436
GGCAAUAAAGUGUAUUGGCTT against Cd3e	inactive: -0.0274
GGCUUGGAAGGAUUAGAAGTT against 4930418G15Rik	inactive: -0.344
GGACUUUUCUGAUGAAACATT against Map3k4	inactive: -1.32
GGCCUACGUGCUAAACAUCTT against Atp1b1	inactive: -0.147
GGCAUAUGAUGAUAAGUAATT against P2ry14	inactive: -0.412
GGUGUGGUGGGUUUCUCAUTT against Mcpt2	inactive: 0.551
GCAAUCUUUUAUACGUGCCTT against Cklfsf1	inactive: 0.0475
GAGCAUAGAAACCAUGCACTT against Mte1	inactive: 0.914
CCCGUCUGCAUGCUGAAAATT against MGC65558	inactive: 1.27
GGUCAUUAAGGACUCGAAGTT against Gfap	inactive: 1.48

Sequence	z-score
CGGUGUCGAAGGUUUGGAUTT against 2810484M10Rik	inactive: 0.434
GCGACCAGCCUGUUGUUGUTT against 7420416P09Rik	inactive: 0.0266
CCCUUUGCAUUCCUACUGATT against LOC433332	inactive: -0.382
CCUUCCUAUGUGAUAACCGTT against Rnh2	inactive: 0.179
GGAGAAUAACAAGAUAGUCTT against Pcdhgb8	inactive: -0.157
GGCCUUUGAGAAGAACAUUTT against Copz1	inactive: -2.47
GGAGAUGAUUUUGAACUUCTT against 1300010M03Rik	inactive: 0.371
GCUUGCUCCGGUAACAGCATT against Gata6	inactive: -0.205
GGUGCUCAUCGACUGGAUCTT against Parva	inactive: -0.356
GUCUUAUACACGUGUGGACTT against Cklf	inactive: -1.22
CCCAAGUGAAAGUAAUGUCTT against Tardbp	inactive: -0.711
GCUUAAAGAACUCUAUUCATT against Oaz3	inactive: 0.768
CCGAAGCAUUUUCCCAUCUTT against Gm963	inactive: -0.759
GGGUGUACAGAGGAUCCGATT against Atp2a3	inactive: 0.856
GGAGGCCUAUUUAAUGGAGTT against 1700094E07Rik	inactive: 0.0365
GCCGAGUGAUAACAGUAGATT against Ndufa10	inactive: 0.352
GGAUCUGUACACAGUUAGUTT against Olfr1123	inactive: 0.15
GGAUUAUCACUGCCUCUUATT against Olfr1446	inactive: -0.65
GGUGGUCAAGAUCUUGGUGTT against Mcoln1	inactive: 1.56
CGUUUUCCACAAAGCAAAATT against Olfr1465	inactive: 0.0226
GCUGUGAAGACGGACAAUATT against Pelo	inactive: -2.45
GGAUUAAAGGCCAUAAGGATT against 6430604K15Rik	inactive: 0.36

Reformatted in CSV form: entries from further up
Sequence,z-score
GGAGAUGAUUUUGAACUUCTT against 1300010M03Rik,inactive: 0.371
GCUUGCUCCGGUAACAGCATT against Gata6,inactive: -0.205
GGUGCUCAUCGACUGGAUCTT against Parva,inactive: -0.356
GUCUUAUACACGUGUGGACTT against Cklf,inactive: -1.22
CCCAAGUGAAAGUAAUGUCTT against Tardbp,inactive: -0.711
